In PubChem BioAssay AID1347423 (Functional Genomics Laboratory (NCATS/FGL), 2020):
Out of some 52,000 sequences screened, about 210 (0.4%) were called active.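 How the source made its calls: active means gene whose silencing raises cell survival under the drug, median off-target-corrected z-score across its silencing RNAs 2 or more; inactive means the rest.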 The list shows a part of the results.

Assay: Resistance to Poly (ADP-Ribose) Polymerase inhibitor: Gene Identification via Genome-wide siRNA Screen
Settings: mouse BRCA2 R2336H ES cells, olaparib, CellTiter-Glo viability; hits give high values
How it was run: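 Genome-wide siRNA screen (3 siRNAs/gene, 20 nM) in mouse ES cells carrying hypomorphic BRCA2 R2336H; olaparib 500 nM added 48 h post-transfection, CellTiter-Glo viability 72 h later. Normalized to plate-median negative control; MAD z-scores, gene median, seed-adjusted.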
In the case of CCCAGAGCAUGCCAUCAACTT against Orm3, the z-score is reported as inactive: -0.0351.
In the case of “GGCCCAACACCAUGAACAATT against 5730405M13Rik”, the z-score is reported as inactive: -0.564.
With CGCAAGGCAUUCUCUACUUTT against Olfr1029 the z-score was inactive: 1.15.
For GGCCUUCAACUUGGUUAAGTT against U2af2, the z-score was inactive: -1.37.
With GGUUAUCGUUCUUGUCAAUTT against Ifih1 the z-score was inactive: -0.0922.
In the case of GCAAUGAAGAGUAACCGCUTT against Pak2, the z-score is reported as inactive: 0.14.
In the case of “GCUGGACUAACAUUGCUGUTT against 1700111I05Rik”, the z-score is reported as inactive: -0.335.
For GCUUGAUCGAAGAAAGACATT against Tdrd3, the z-score was inactive: -0.455.
For “GGAUCAUUAAACAACCUGATT against C130076O07Rik”, the z-score was inactive: 0.421.
In the case of GCAAUUUCUGUGUGAAGAATT against Ahcyl1, the z-score is reported as inactive: -1.39.
For GGUAUCCAACUGGUUUGUATT against Tgifx1, the z-score was inactive: -0.148.
With “GGUACUUAUGUGGAUUGGATT against 1500019C06Rik” the z-score was inactive: -2.15.
With CCCAUUUCACUUCAGUUUGTT against Osbp2 the z-score was inactive: -0.129.
With GGUUGAUUUAGAGAGGGCCTT against Gprc5c the z-score was inactive: 0.084.
With GCAAGGUAAGUUAGAUAUUTT against Armcx3 the z-score was inactive: -0.0113.
In the case of GCACCAUCAUAUGAUCACGTT against Cd83, the z-score is reported as inactive: -0.122.
In the case of CGUCGUGGUUGGUAUGUAATT against Sacs, the z-score is reported as inactive: -0.148.
In the case of GGUGAAAUCGACAAUCAAGTT against Rpl10a, the z-score is reported as inactive: -2.72.
In the case of “GGCAGCAAAAAGAAAAUCUTT against C730048C13Rik”, the z-score is reported as inactive: 0.271.
With GGUGUGUGCAGGACUAAAUTT against Cacng3 the z-score was inactive: 0.194.
For GGUUUUGACCAGACCAUUATT against Lsm8, the z-score was inactive: -1.76.
With “GGUUUCUUUGCCUACCCAGTT against 5830434P21Rik” the z-score was inactive: 0.0816.
In the case of GCCACUACCGAUUUUCCCUTT against Lctl, the z-score is reported as inactive: 1.68.
With UGUGCAUAGUCAAUCUCAGTT against Bag5 the z-score was inactive: 0.918.
With CCAAUUCACGUAUGACAAUTT against C3ar1 the z-score was inactive: 0.395.
With GGUGCAAAGCUUGAAAAUGTT against Gpr150 the z-score was inactive: -0.86.
In the case of CGGAAUGAGUCUGCUGGUCTT against Mrgprg, the z-score is reported as inactive: 0.72.
In the case of GCUUGAUUUUUGACAGAGATT against Mdh1b, the z-score is reported as inactive: -2.19.
In the case of GGGAUAAAAUUCUACCUAATT against Htr2b, the z-score is reported as inactive: 0.00724.
